Results from paper PMC10926623.
No constants are given. Whether binding was seen depends on the method and setting. In cells and extracts the contact can be indirect. Some binding calls cover weakened binding; strength is not graded here.

Protein sequences, listed by entry. Tags and fused reporters are not part of them.
UniProt P26446: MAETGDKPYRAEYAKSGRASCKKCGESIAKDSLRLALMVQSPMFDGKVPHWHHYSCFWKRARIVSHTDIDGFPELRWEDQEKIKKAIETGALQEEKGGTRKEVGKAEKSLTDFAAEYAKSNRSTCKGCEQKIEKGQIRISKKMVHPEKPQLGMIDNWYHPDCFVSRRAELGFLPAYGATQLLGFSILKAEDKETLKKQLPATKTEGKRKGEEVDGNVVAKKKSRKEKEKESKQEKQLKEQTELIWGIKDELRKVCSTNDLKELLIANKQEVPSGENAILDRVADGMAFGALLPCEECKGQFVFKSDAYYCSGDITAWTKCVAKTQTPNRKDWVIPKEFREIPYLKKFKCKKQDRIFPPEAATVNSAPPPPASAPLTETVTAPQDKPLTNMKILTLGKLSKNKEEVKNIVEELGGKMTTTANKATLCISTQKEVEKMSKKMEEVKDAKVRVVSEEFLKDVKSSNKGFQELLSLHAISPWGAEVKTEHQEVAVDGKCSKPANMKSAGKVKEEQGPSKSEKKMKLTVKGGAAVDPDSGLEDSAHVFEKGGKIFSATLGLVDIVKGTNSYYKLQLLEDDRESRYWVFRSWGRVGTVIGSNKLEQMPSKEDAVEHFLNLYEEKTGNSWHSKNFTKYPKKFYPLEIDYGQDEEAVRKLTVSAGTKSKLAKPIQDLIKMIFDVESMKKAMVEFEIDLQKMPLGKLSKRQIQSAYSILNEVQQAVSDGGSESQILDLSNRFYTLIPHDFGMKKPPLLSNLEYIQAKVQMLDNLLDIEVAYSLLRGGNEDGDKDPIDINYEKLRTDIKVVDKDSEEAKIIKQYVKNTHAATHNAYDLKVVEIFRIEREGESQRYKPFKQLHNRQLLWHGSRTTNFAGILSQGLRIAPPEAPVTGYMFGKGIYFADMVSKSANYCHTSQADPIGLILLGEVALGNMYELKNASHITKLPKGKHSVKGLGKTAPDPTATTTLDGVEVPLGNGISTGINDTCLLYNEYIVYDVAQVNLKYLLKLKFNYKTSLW
UniProt Q9YH06: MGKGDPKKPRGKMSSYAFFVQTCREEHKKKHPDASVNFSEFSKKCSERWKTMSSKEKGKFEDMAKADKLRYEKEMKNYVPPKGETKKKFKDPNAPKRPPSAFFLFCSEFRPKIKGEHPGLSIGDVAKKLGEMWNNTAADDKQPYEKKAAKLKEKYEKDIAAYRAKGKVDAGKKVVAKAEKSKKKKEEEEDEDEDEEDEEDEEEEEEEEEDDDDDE

Target: Poly(ADP-ribose) polymerase 1 (chicken (endogenous in primary granulosa cells)) (UniProt P26446)
Experiment: co-IP; IP with PARP1 antibody from granulosa cells; Western blot with PARP1 and HMGB1 antibodies

binding: binds
Substance: High mobility group box 1 (from UniProt Q9YH06 1-215)
